## Cleaved PARP after 72 h of treatment

Compounds and concentrations:
erlotinib (4 µM): C#Cc1cccc(Nc2ncnc3cc(OCCOC)c(OCCOC)cc23)c1
stibogluconate (10 µM): O=C(O)[C@@H]1[O][Sb](=[O])([O][Sb]2(=[O])[O][C@H]([C@H](O)CO)[C@H](O)[C@H](C(=O)O)[O]2)[O][C@H]([C@H](O)CO)[C@@H]1O (some centres undefined)
pazopanib (2 µM): Cc1ccc(Nc2nccc(N(C)c3ccc4c(C)n(C)nc4c3)n2)cc1S(N)(=O)=O
BI-78D3 (1 µM): O=c1[nH]nc(Sc2ncc([N+](=O)[O-])s2)n1-c1ccc2c(c1)OCCO2
vorinostat (0.4 µM): O=C(CCCCCCC(=O)Nc1ccccc1)NO
PF-04217903 (5 µM): OCCn1cc(-c2cnc3nnn(Cc4ccc5ncccc5c4)c3n2)cn1
GSK650394 (0.8 µM): O=C(O)c1ccc(-c2c[nH]c3ncc(-c4ccccc4)cc23)cc1C1CCCC1
ENMD-2076 (0.2 µM): Cc1cc(Nc2cc(N3CCN(C)CC3)nc(/C=C/c3ccccc3)n2)n[nH]1
perifosine (2 µM): CCCCCCCCCCCCCCCCCCOP(=O)([O-])OC1CC[N+](C)(C)CC1

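Human melanoma cells were exposed to a pair of drugs for 72 h in 1,536-well plates and read by automated microscopy after fixing and staining. Values are the share of nuclei positive for cleaved PARP as a percentage of the same share in the DMSO control: 100 is the control level, higher means more apoptosis. Every drug was used at one fixed concentration, the higher of two screened. These are primary screening values without error estimates. The marker varies much from line to line, for technical or biological reasons.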 Only some of the drugs and lines screened are listed, without regard to their results. An entry leaves out what has no value listed here. A dash means that no value is listed here.

| Drugs | WM1716 | SK-MEL-2 | IST-MEL1 | A375 |
|---|---|---|---|---|
| GSK650394 and vorinostat | 220 | 189 | 183 | - |
| pazopanib and perifosine | 121 | 53.8 | 131 | 21.0 |
| ENMD-2076 and pazopanib | 102 | 110 | 237 | 31.6 |
| GSK650394 and perifosine | 170 | 236 | 106 | - |
| stibogluconate and PF-04217903 | 267 | 125 | 301 | - |
| ENMD-2076 and vorinostat | 105 | 228 | 90.2 | - |
| erlotinib and stibogluconate | 43.0 | 212 | 50.7 | 30.1 |
| ENMD-2076 and perifosine | 132 | 155 | 90.8 | 29.9 |
| BI-78D3 and vorinostat | 84.3 | 178 | 90.6 | - |
| PF-04217903 and BI-78D3 | 65.1 | 60.1 | 208 | - |
| perifosine and PF-04217903 | 212 | 30.5 | 66.1 | - |
| ENMD-2076 and PF-04217903 | 119 | 75.1 | 82.7 | - |
| erlotinib and GSK650394 | 51.9 | 197 | 87.2 | - |
| stibogluconate and ENMD-2076 | 107 | 129 | 64.9 | 76.4 |
| GSK650394 and PF-04217903 | 114 | 78.9 | 46.6 | - |
| PF-04217903 and pazopanib | 161 | 120 | 33.1 | - |
| BI-78D3 and perifosine | 91.4 | 50.3 | 68.4 | 86.8 |
| pazopanib and stibogluconate | 124 | 79.9 | 79.7 | 53.5 |
| stibogluconate and GSK650394 | 80.6 | 144 | 173 | - |
| stibogluconate and vorinostat | 212 | 144 | 458 | - |
| erlotinib and ENMD-2076 | 129 | 258 | 132 | 305 |
| erlotinib and BI-78D3 | 101 | 56.0 | 137 | 76.2 |
| pazopanib and vorinostat | 23.8 | 118 | 276 | - |
| pazopanib and BI-78D3 | 121 | 114 | 32.7 | 93.5 |
| erlotinib and perifosine | 95.1 | 251 | 112 | 31.4 |
| vorinostat and PF-04217903 | 92.2 | 165 | 85.2 | - |
| perifosine and stibogluconate | 54.3 | 59.9 | 252 | 41.8 |
| vorinostat and erlotinib | 96.9 | 758 | 164 | - |
| erlotinib and pazopanib | 141 | 198 | 42.7 | 54.3 |
| stibogluconate and BI-78D3 | 59.0 | 125 | 128 | 98.0 |

2 of the entries, repeated:

* perifosine and PF-04217903 | WM1716: 212; SK-MEL-2: 30.5; IST-MEL1: 66.1
* ENMD-2076 and pazopanib | WM1716: 102; SK-MEL-2: 110; IST-MEL1: 237; A375: 31.6

Values as published with doi:10.1371/journal.pone.0140310, rounded.